Where a chain is given by its changes, count along the chain named. These are yes or no findings as the source states them, for the method shown. Some binding calls cover weakened binding; strength is not graded here. Each block holds one binder with its values, some of them ahead of it.
Molecular target: HER3 on human tumor cell lines (human) (UniProt P21860)
Assay: flow cytometry on MDA-MB-453 and SW620 cells

Sequences of proteins named here, by UniProt entry; tags and fusion partners are left off. Residues count along the entry.
UniProt P21860, residues 20-1342: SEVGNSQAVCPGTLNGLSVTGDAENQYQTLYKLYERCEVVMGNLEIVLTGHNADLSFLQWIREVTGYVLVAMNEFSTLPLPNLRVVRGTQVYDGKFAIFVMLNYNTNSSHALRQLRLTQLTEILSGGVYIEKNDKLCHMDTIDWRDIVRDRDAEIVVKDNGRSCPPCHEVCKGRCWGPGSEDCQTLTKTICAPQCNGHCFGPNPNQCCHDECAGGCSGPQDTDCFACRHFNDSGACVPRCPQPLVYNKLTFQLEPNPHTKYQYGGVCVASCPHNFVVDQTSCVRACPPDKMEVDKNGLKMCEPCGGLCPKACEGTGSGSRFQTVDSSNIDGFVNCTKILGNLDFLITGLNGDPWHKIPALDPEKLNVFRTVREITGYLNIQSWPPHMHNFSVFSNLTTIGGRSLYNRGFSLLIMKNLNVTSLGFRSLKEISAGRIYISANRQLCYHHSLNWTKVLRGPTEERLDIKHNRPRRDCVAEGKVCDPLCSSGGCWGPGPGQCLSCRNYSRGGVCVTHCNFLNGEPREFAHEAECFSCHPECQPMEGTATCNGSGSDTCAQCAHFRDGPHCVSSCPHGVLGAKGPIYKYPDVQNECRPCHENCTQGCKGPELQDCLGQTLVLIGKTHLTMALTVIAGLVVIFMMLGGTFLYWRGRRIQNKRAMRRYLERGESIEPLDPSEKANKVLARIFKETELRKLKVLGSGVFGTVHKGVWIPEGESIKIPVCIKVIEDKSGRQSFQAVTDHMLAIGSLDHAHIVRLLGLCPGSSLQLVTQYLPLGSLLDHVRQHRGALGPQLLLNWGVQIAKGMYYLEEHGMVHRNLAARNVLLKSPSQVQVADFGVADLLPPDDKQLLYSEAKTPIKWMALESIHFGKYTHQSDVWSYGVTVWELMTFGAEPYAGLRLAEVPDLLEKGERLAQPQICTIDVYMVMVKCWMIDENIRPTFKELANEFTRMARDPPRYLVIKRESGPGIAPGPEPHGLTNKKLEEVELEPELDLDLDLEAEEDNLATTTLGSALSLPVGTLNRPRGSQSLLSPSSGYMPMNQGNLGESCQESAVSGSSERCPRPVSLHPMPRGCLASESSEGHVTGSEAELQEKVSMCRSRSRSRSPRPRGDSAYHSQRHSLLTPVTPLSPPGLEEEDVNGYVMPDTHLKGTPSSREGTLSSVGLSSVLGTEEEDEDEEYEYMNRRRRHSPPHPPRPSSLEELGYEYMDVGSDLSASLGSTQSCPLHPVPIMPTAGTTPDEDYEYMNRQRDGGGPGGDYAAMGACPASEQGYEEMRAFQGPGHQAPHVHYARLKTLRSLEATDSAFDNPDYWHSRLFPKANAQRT

binding: binds
B1: humanized 4O3 antibody L2H4 (antibody, human IgG1, kappa, V domains shown)
VH: QVQLQESGPGLVKPSQTLSLTCTVSGISITTGNYRWSWIRQHPGKKLEWIGNIYYSGAITYNPSLKSRVTISRDTSKNQFFLKLSSVTAADTAVYYCARDGGTVVEGWYFDVWGKGTTVTVSS
VL: EIVLTQSPDTQSVTPKEKVTITCRASQSISDYLHWYQQKPDQSPKLLIKYASQSISGVPSRFSGSGSGTDFTLTINSLEAEDVGLYYCQSGRSFPLTFGGGTKVEIKR

binding: binds
B2: humanized 4O3 antibody L4H4 (antibody, human IgG1, kappa, V domains shown)
VH: B1 VH
VL: B1 VL with D41G, S43A, V83F

Source: patent publication EP4606822A1
